# In article doi:10.1101/2025.02.25.640159:
# B1: FSD2 (enzyme, UniProt Q9LU64 47-305)
# chain: GVITAGFELKPPPYPLDALEPHMSRETLDYHWGKHHKTYVENLNKQILGTDLDALSLEEVVLLSYNKGNMLPAFNNAAQAWNHEFFWESIQPGGGGKPTGELLRLIERDFGSFEEFLERFKSAAASNFGSGWTWLAYKANRLDVANAVNPLPKEEDKKLVIVKTPNAVNPLVWDYSPLLTIDTWEHAYYLDFENRRAEYINTFMEKLVSWETVSTRLESAIARAVQREQEGTETEDEENPDDEVPEVYLDSDIDVSEVD
# B2: FSD3 (enzyme, UniProt Q9FMX0 42-263)
# chain: GGLKVEAYYGLKTPPYPLDALEPYMSRRTLEVHWGKHHRGYVDNLNKQLGKDDRLYGYTMEELIKATYNNGNPLPEFNNAAQVYNHDFFWESMQPGGGDTPQKGVLEQIDKDFGSFTNFREKFTNAALTQFGSGWVWLVLKREERRLEVVKTSNAINPLVWDDIPIICVDVWEHSYYLDYKNDRAKYINTFLNHLVSWNAAMSRMARAEAFVNLGEPNIPIA
# B3: … SOD 1 (MSD1) (enzyme, UniProt O81235 30-231)
# chain: TFTLPDLPYDYGALEPAISGEIMQIHHQKHHQAYVTNYNNALEQLDQAVNKGDASTVVKLQSAIKFNGGGHVNHSIFWKNLAPSSEGGGEPPKGSLGSAIDAHFGSLEGLVKKMSAEGAAVQGSGWVWLGLDKELKKLVVDTTANQDPLVTKGGSLVPLVGIDVWEHAYYLQYKNVRPEYLKNVWKVINWKYASEVYEKENN
# B4: ASCORBATE PEROXIDASE 3 (enzyme, UniProt Q42564 1-287)
# chain: MAAPIVDAEYLKEITKARRELRSLIANKNCAPIMLRLAWHDAGTYDAQSKTGGPNGSIRNEEEHTHGANSGLKIALDLCEGVKAKHPKITYADLYQLAGVVAVEVTGGPDIVFVPGRKDSNVCPKEGRLPDAKQGFQHLRDVFYRMGLSDKDIVALSGGHTLGRAHPERSGFDGPWTQEPLKFDNSYFVELLKGESEGLLKLPTDKTLLEDPEFRRLVELYAKDEDAFFRDYAESHKKLSELGFNPNSSAGKAVADSTILAQSAFGVAVAAAVVAFGYFYEIRKRMK
# Target: RACK1A-GFP (RECEPTOR FOR … C KINASE 1A fused to GFP) (Arabidopsis thaliana) (UniProt O24456)
# Assay: affinity purification with mass spectrometry
row,Binder,binding
1,B1,binds
2,B2,binds
3,B3,binds
4,B4,binds

# These are yes or no findings as the source states them, for the method shown. Binding seen in cells or lysates may run through a third protein. Here binding means that the protein was enriched with, or labelled near, the bait; the list need not be complete.
